Source: PMC4424400
These are yes or no findings as the source states them, for the method shown. In cells and extracts the contact can be indirect. Some entries that bind do so weakly or less than the wild type. Tags and fused reporters may be left off the sequences shown.

Amino acid sequences for entries named in this document (tags omitted).
UniProt P04775: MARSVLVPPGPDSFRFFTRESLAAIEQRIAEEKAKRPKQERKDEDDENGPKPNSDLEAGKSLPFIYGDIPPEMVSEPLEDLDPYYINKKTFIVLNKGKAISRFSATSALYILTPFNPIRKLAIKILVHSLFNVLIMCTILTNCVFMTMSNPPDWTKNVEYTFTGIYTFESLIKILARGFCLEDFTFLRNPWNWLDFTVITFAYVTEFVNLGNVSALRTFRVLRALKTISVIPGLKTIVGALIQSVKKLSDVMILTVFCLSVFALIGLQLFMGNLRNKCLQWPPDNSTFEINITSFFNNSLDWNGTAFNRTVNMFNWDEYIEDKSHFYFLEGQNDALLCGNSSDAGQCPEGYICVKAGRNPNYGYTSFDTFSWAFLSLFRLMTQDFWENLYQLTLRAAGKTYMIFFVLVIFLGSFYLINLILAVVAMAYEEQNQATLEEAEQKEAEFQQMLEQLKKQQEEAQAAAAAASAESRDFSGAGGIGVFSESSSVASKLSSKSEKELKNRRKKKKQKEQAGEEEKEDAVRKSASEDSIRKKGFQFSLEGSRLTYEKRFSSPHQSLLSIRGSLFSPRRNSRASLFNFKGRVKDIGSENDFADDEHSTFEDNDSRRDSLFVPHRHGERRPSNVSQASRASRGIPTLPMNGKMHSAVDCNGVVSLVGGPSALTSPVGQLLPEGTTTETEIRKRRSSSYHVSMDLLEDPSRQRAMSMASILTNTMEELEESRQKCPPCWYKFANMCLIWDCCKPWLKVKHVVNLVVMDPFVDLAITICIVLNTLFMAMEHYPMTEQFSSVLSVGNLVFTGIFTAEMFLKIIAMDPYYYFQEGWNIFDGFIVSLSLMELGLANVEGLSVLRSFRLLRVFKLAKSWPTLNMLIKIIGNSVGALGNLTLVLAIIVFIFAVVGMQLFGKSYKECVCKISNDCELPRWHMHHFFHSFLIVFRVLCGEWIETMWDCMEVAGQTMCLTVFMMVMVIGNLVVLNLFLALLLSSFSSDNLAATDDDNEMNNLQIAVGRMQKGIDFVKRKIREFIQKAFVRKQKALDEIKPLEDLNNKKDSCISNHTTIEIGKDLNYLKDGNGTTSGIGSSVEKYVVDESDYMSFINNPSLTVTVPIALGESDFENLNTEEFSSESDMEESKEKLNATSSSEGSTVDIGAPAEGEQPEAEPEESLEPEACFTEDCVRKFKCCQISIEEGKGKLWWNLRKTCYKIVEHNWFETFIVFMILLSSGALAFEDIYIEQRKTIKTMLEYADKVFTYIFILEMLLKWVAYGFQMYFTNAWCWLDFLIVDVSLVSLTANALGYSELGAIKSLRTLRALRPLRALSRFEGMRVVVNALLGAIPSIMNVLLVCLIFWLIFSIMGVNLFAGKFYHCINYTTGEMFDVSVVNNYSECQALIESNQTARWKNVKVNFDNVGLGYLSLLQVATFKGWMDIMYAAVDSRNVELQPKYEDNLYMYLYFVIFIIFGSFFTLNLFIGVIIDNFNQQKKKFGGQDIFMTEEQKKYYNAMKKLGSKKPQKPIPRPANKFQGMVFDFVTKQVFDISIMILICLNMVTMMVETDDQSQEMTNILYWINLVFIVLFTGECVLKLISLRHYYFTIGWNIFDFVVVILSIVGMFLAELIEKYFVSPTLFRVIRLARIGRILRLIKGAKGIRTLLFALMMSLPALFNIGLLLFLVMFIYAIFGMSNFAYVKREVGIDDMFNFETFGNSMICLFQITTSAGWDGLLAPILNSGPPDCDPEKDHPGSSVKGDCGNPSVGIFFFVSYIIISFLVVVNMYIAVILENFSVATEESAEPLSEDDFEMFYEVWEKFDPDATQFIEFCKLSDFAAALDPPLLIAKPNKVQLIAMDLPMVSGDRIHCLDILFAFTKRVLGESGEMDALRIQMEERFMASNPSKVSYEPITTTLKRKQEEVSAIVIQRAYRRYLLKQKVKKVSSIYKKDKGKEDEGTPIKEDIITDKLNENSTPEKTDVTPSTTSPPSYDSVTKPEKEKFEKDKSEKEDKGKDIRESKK

Biological target: T1, myc-FGF12 (myc-fgf12-1b fusion construct) (UniProt P61329)
T1 sequence: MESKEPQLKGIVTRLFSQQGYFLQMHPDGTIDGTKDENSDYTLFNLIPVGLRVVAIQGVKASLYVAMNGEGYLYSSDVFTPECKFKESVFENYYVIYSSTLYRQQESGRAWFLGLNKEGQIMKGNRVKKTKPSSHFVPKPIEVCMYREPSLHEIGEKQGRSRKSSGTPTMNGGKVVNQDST
Assay: co-IP; lysates of HEK-293 cells stably expressing rat Nav1.2, transfected with myc-FGF12 or myc-sprouty; immunoprecipitation with anti-myc antibody; blots probed with PanNav and myc antibodies

binding: binds
Substance: Rat Nav1.2 alpha subunit stably expressed in HEK-293 cells (from UniProt P04775 1-2005)
